Library screen at single concentrations

Amino acid sequences for entries named in this document (tags omitted). Residues count along the entry.
UniProt P9WPC5, whole entry: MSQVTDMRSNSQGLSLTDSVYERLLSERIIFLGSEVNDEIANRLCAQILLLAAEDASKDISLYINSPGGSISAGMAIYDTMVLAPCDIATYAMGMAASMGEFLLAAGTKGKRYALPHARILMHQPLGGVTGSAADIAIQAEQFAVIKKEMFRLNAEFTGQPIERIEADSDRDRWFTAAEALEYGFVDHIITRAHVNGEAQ
UniProt P9WPC3, whole entry partner: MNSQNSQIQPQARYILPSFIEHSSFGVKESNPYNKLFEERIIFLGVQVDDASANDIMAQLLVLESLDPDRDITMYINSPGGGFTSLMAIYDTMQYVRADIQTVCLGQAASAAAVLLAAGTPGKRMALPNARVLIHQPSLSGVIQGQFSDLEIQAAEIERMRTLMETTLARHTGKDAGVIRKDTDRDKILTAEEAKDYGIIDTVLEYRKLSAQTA
UniProt P9WNZ1, whole entry: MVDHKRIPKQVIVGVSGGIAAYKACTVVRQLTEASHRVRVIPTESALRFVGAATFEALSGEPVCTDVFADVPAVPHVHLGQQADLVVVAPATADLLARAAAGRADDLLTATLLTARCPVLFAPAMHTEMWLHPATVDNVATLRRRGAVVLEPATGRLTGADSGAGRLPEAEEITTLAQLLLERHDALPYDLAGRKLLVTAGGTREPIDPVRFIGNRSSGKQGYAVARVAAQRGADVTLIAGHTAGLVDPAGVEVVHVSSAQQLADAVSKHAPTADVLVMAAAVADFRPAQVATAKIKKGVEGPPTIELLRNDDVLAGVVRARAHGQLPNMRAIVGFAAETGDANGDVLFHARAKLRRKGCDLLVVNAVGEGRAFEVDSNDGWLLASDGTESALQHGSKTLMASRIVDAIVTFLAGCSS
UniProt A4I591, 1-473: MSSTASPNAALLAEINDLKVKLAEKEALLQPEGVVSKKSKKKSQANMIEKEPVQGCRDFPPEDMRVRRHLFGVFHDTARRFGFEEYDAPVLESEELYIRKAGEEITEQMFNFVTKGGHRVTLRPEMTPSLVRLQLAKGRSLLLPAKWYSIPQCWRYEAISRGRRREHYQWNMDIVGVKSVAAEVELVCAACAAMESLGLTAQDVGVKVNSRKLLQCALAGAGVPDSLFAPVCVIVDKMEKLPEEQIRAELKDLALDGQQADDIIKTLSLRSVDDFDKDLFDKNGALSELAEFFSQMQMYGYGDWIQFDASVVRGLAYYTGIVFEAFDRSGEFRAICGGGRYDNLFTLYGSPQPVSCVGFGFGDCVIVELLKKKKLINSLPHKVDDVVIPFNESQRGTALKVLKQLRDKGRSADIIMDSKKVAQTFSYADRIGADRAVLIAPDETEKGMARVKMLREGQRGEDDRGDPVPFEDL

Data taken from ChEMBL document CHEMBL3988442, “University of Dundee, Small-Polar-MMV Screening Library” (2021).

ClpP1P2: 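Protease assay of ClpP1P2, read by the AMC dye that it sets free. Target: ClpP1P2, Mycobacterium tuberculosis (UniProt P9WPC5 and UniProt P9WPC3). Concentration: 50 µM. Higher reads as stronger inhibition, judged from the few compounds that gave an IC50. Most other retested compounds had strongly negative values. Size under these conditions: about 69,000 compounds, about 10 of them at 50% or above in at least one test.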
CoaBC: 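Coenzyme A biosynthesis protein CoaBC, Mycobacterium tuberculosis (UniProt P9WNZ1). Enzyme assay of CoaBC with a phosphate dye (Biomol Green) read at 650 nm. Tested at 30 µM. Higher reads as stronger inhibition, judged from the few compounds that gave an IC50. Most strong results did not repeat in a second test. About 67,000 compounds were tested under these conditions; 0.06% (about 40) showed 50% or more at least once.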
Leishmania in macrophages: 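Cell assay of Leishmania donovani living inside macrophages; the read-out is not stated. Tested at 30 µM. The record gives no direction; compounds that gave an IC50 in retests scored well above the rest, so higher reads as stronger inhibition. Size under these conditions: about 69,000 compounds, about 1,000 of them at 50% or above in at least one test.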
LiHisRS: 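Histidine-tRNA ligase, Leishmania infantum (UniProt A4I591). Enzyme assay of histidyl-tRNA synthetase; the read-out is not stated. Tested at 30 µM. Higher reads as stronger inhibition (inferred: compounds with an IC50 in retests scored well above the rest). The assay is labelled LdHisRS but filed under L. infantum. Of about 69,000 compounds tested this way, about 410 (0.6%) reached 50% or more in at least one test.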

Each number is a percent effect as filed.
How 0% and 100% were set is not recorded. Most values in the screen are low, and negative values occur.
The compounds are a random part of those screened.
Two or more numbers in one place are separate tests of the same structure; such repeats can differ widely.

- CN(CC1CCOC1)c1ccc(Br)cn1 (stereo not shown) : ClpP1P2: -15.22%; CoaBC: -5.387%; Leishmania in macrophages: 12.2%; LiHisRS: -9.574%
- CC(=O)N1CCCC1c1ccc(C(=O)N2CCOCC2)s1 (stereo not shown) : ClpP1P2: -4.592%; CoaBC: -6.608%; Leishmania in macrophages: 1.652%; LiHisRS: -3.774%
- COc1ccnc(N2CCCN(C(=O)Cc3ccc(C)s3)CC2)n1 : ClpP1P2: -44.3%; CoaBC: 4.178%; Leishmania in macrophages: -6.454%; LiHisRS: 18.58%
- CN(C)C1CCN(C(=O)CCc2cc(Br)cs2)CC1 : ClpP1P2: -1.406%; CoaBC: -4.132%; Leishmania in macrophages: 16.35%; LiHisRS: 6.667%
- COc1ccc(C(=O)NCCNC(=O)c2scnc2Cl)cc1 : ClpP1P2: -28.37%; CoaBC: 4.7%; Leishmania in macrophages: 14.22%; LiHisRS: 12.07%
- CN(C)CCN(Cc1ccccc1)C(=O)CN1CCCNC1=O : ClpP1P2: 1.714%; CoaBC: -4.637%; Leishmania in macrophages: 22.92%; LiHisRS: 21.21%
- O=C(Cn1ccc2ncccc2c1=O)N1CCCCC1 : ClpP1P2: 4.944%; CoaBC: 5.767%; Leishmania in macrophages: 4.744%; LiHisRS: 17.65%
- O=C(NCc1cccnc1-n1cncn1)c1ccncc1 : ClpP1P2: 1.452%; CoaBC: 2.036%; Leishmania in macrophages: 55.13% & -14.6%; LiHisRS: 23.08%
- CNC(=O)[C@H]1C[C@@H]2CN(Cc3ccc(C)cc3)C[C@H]1O2 : ClpP1P2: 10.05%; CoaBC: 0.1212%; LiHisRS: 15.38%
- CN(Cc1ccc2nsnc2c1)C(=O)Cn1ncc(N(C)C)cc1=O : ClpP1P2: -7.299%; CoaBC: 6.277%; Leishmania in macrophages: -3.978%; LiHisRS: 13.11%
- O=C(O)[C@@H]1CN(Cc2ccc3nsnc3c2)C[C@H]1c1cccnc1 : ClpP1P2: 3.207%; Leishmania in macrophages: 23.58%; LiHisRS: 15.49%
- Cl.c1cc(OCc2ccc3c(c2)OCCO3)ccc1CNC1CC1 : Leishmania in macrophages: 25.06%
- O=C(NCC(F)(F)F)C1=NOC2(CCCNC2)C1 (stereo not shown) : ClpP1P2: -2.441%; CoaBC: -1.931%; LiHisRS: 1.961%
- CCN1CC2(CC1=O)CN(C(=O)c1cccs1)CCN(C(=O)N(C)C)C2 (stereo not shown) : ClpP1P2: -18.33%; CoaBC: 4.069%; Leishmania in macrophages: 43.83%; LiHisRS: 9.677%
- Cc1nn(C)c(C)c1S(=O)(=O)NCC1(C(N)=O)CCOCC1 : ClpP1P2: 5.349%; CoaBC: 11.33%; Leishmania in macrophages: -5.632%; LiHisRS: 12.94%
- Cc1ccc(CN2Cc3c(C(=O)N4CCOCC4)nn(C)c3C2)s1 : ClpP1P2: -17.3%; CoaBC: 3.576%; LiHisRS: 8.065%
- CC(CNC(=O)c1cc(-n2cccn2)ccn1)Cn1ccnc1 (stereo not shown) : ClpP1P2: 5.794%; Leishmania in macrophages: 13.78%; LiHisRS: 1.408%
- CCCN1CCc2nc(SCc3ccccc3F)[nH]c(=O)c2C1 : ClpP1P2: 9.164%; CoaBC: 3.171%; Leishmania in macrophages: 6.887% & -4.542%; LiHisRS: 13.91%
- COCCOC[C@]1(CNCc2ccc(F)cc2)C[C@@H](O)[C@@H](O)C1 : ClpP1P2: 7.653%; CoaBC: -0.6772%; LiHisRS: 0%
- CC(C)CC(=O)N1CCC2(CC1)[C@@H]1CN(C(=O)N(C)C)C[C@@H]1C(=O)N2C : ClpP1P2: -17.68%; CoaBC: 1.781%; LiHisRS: 19.42%
- CCC(=O)N1CCN(C(=O)Cn2cccn2)CC1 : ClpP1P2: -14%; CoaBC: 10.83%; Leishmania in macrophages: 17.51%; LiHisRS: 1.835%
- CNS(=O)(=O)c1ccc(CNC(=O)c2c(C)oc(C)c2C)cc1 : ClpP1P2: 7.977%; CoaBC: -4.826%; Leishmania in macrophages: 24.12%; LiHisRS: 13.68%
- [H][C@@]12CC[C@@](O)(c3ccc(C)cn3)[C@]1([H])CN(Cc1ccc(SC)cc1)C2 : Leishmania in macrophages: -19.41% & 0.4577%
- CCC(C)NS(=O)(=O)Cc1cccc(NC(=O)C(C)C)c1 (stereo not shown) : ClpP1P2: 1.02%; CoaBC: 8.884%; Leishmania in macrophages: -61.29%; LiHisRS: 16.44%
- CCn1c(N)nc2cc(C(=O)N3CCC(N4CCCC4)CC3)cnc21 : ClpP1P2: -3.2%; CoaBC: 11.82%; Leishmania in macrophages: 24.35%; LiHisRS: 13.7%
- C[C@H]1CN2C[C@H](O)CC2CN1Cc1ccncc1 (stereo partly shown) : ClpP1P2: -11.33%; CoaBC: 5.701%; Leishmania in macrophages: 34.45%; LiHisRS: 4.225%
- CN(C)C(=O)CC1CC2(CCN(CC3CC3)CC2)Oc2ccccc21 (stereo not shown) : ClpP1P2: -0.9199%; CoaBC: 3.475%; LiHisRS: 13.46%
- CCC1CN(CC(=O)NCC(C)C)CCO1 (stereo not shown) : ClpP1P2: -8.688%; CoaBC: 4.224%; Leishmania in macrophages: 17.13%; LiHisRS: 4.762%
- Cc1cc2c(cc1C(=O)N1CCC3(CC(=O)NC3=O)C1)OCCO2 (stereo not shown) : ClpP1P2: -2.022%; CoaBC: 1.29%; Leishmania in macrophages: 6.235%; LiHisRS: 9.211%
- Cc1nc(Nc2ncccn2)cc(C2CCCN2C(C)C)n1 (stereo not shown) : ClpP1P2: -12.03%; CoaBC: 6.568%; Leishmania in macrophages: 13.57%; LiHisRS: 16%
- CSc1ncc(C(=O)N2CCN(c3ccccc3C)CC2C)cn1 (stereo not shown) : ClpP1P2: -13.87%; CoaBC: 3.571%; Leishmania in macrophages: 12.87%; LiHisRS: 0%
- CCS(=O)(=O)N1CC(=O)N(Cc2ccccc2OC)CC(O)C1 (stereo not shown) : ClpP1P2: 17.87%; CoaBC: 0.9685%; Leishmania in macrophages: -0.6617%; LiHisRS: 18.37%
- Cc1cc(NC(=O)CNC2CCc3nc(C(C)C)nn3C2)no1 (stereo not shown) : ClpP1P2: -6.162%; CoaBC: -5.102%; Leishmania in macrophages: 12.65%; LiHisRS: 7.273%
- Cc1ncccc1CNCC1CCN(CCO)CC1 : ClpP1P2: -3.384%; CoaBC: -0.8906%; Leishmania in macrophages: 29.11%; LiHisRS: 13.04%

Once more, the final 2:

- Cc1cc(NC(=O)CNC2CCc3nc(C(C)C)nn3C2)no1 (stereo not shown) | ClpP1P2: -6.162%; CoaBC: -5.102%; Leishmania in macrophages: 12.65%; LiHisRS: 7.273%
- Cc1ncccc1CNCC1CCN(CCO)CC1 | ClpP1P2: -3.384%; CoaBC: -0.8906%; Leishmania in macrophages: 29.11%; LiHisRS: 13.04%